Measured values as given in publication PMC7083106.
No constants are given. Whether binding was seen depends on the method and setting. Some results given as binding are weak or reduced against the parent protein; the word gives no strength.

Chains of the proteins cited; added tags and fusions are not shown. Lines headed by an entry give the natural chain unless they say otherwise; changes in a name come on top.
UniProt Q5ZKX6: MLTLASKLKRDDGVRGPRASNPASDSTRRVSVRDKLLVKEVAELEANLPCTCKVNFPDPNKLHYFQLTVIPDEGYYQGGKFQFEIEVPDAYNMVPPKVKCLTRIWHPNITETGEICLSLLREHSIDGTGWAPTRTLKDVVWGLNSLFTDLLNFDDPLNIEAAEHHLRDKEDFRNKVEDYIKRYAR

Target: Eimeria acervulina microneme protein 3 (Eimeria acervulina)
Experiment: two-hybrid; DUALhunter (split-ubiquitin) screen in yeast NMY51: bait pDHB1-EaMIC3 against a chicken duodenal epithelial cell cDNA library in pPR3-N; positive prey plasmids retransformed with the bait to eliminate false positives

chicken (Gallus gallus) ubiquitin conjugating enzyme E2F (from UniProt Q5ZKX6 1-185)
binding: binds
